These are yes or no findings as the source states them, for the method shown. Some entries that bind do so weakly or less than the wild type.
The binders below were run against IGF1R (UniProt P08069) (assay: MRD identification, Example 48).

The chains behind the UniProt entries cited, without tags or fusion partners. Residues count along the entry.
UniProt P08069, residues 31-932: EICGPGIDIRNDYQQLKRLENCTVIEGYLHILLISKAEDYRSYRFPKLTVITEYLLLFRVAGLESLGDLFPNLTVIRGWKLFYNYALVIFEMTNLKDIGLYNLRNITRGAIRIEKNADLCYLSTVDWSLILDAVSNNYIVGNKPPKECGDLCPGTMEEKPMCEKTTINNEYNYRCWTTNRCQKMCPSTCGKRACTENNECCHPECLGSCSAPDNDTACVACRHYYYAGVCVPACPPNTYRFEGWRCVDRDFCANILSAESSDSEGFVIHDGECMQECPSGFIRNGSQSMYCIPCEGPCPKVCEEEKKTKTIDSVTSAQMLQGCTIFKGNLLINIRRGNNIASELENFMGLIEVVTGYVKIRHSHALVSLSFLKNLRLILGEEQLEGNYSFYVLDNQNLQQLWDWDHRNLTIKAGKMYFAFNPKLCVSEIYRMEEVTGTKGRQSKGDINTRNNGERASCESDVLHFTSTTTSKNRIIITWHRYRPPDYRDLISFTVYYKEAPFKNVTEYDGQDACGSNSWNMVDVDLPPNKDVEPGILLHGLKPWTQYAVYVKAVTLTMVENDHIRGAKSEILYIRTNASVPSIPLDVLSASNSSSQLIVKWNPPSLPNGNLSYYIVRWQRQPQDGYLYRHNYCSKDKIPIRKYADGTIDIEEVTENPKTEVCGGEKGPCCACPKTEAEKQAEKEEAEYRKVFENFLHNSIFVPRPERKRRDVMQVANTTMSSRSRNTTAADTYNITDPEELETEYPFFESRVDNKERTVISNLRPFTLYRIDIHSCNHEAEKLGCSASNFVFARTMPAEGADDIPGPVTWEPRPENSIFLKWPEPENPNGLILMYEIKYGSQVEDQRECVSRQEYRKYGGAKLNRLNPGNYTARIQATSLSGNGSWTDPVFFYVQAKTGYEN

binding, binds:
AHRLCQEFVELCFGET [IGF297], KPPLCEEFHELCFDLT [IGF301], ADLLCAEFTELCFDVI [IGF254], PQLLCLEFAELCFWDI [IGF275], IPMLCWEFTELCFDLN [IGF267], AELLCREFTELCFLRD [IGF291], APPLCIEFEELCFGFL [IGF314], DDALCKEFPELCFQNV [IGF259], IPYLCLEFPVLCFQDT [IGF260], IPLLCFEFVELCFDLT [IGF258], PHPLCQEFEELCFETV [IGF256], AHPLCLEFSELCFEAV [IGF255], RHSLCIEFPELCFDEY [IGF308], ASQLCGEFPELCFDKV [IGF257], AARLCSEFPELCFHAS [IGF307], PHYLCLEFSELCFDER [IGF273], TPFLCLEFHELCFGEH [IGF274], DDALCAEFNELCFEVT [IGF313], YYALCAEFQELCFDEH [IGF293], PHFLCMEFPVLCFNDS [IGF298], AGRLCAEFHELCFGTN [IGF309], SHPLCTEFIELCFGFE [IGF196], AHPLCVEFSELCFNED [IGF266], VHWLCAEFEELCFDQT [IGF280], VPPLCLEFPELCFTDS [IGF282], VPSLCIEFSELCFDSP [IGF295], YLSLCAEFTELCFHTE [IGF286], DHWLCIEFSELCFGKS [IGF283], VPLLCFEFPELCFGYQ [IGF294], SHPLCLEFHELCFTDA [IGF315], PHKLCLEFRELCFDEL [IGF303], IHPLCLEFTELCFHEV [IGF316], AHALCLEFLELCFEER [IGF289], DWRLCQEFTELCFMDG [IGF285], HPALCVEFVELCFGHE [IGF311], PHPLCLEFIELCFGTH [IGF270], LHFLCVEFVELCFDEA [IGF304], VPPLCMEFTELCFHDP [IGF265], VPALCWEFPELCFHYQ [IGF278], PHPLCLEFEELCFTER [IGF306], IPFLCYEFQELCFGTL [IGF290], LHFLCLEFQELCFDSN [IGF281], IPQLCLEFSELCFGMT [IGF299], VPSLCLEFPELCFNEA [IGF269], PHILCLEFAELCFDHL [IGF261], PPLLCFEFPELCFGYE [IGF287], EVWEGYDWLY [IGF95], EHPLCLEFPELCFSHP [IGF272], TPALCLEFWELCFDEA [IGF264], DYALCLEFRELCFGMN [IGF296], IPPLCLEFQELCFGWD [IGF312], APGLCIEFRELCFDEK [IGF292], VPQLCLEFQELCFGEH [IGF268], SFYAWFDEQV [IGF93], VPALCLEFKELCFHDR [IGF263], VPFLCLEFSELCFTDP [IGF253], VPRLCYEFPELCFHKQ [IGF305], TPSLCLEFSELCFADG [IGF279], DHKLCNEFPELCFHDV [IGF288], RTDLCMEFYELCFHSD [IGF300], PHALCREFHELCFEKS [IGF276], EHPLCEEFKELCFGTN [IGF284], ASRLCMEFPELCFDRK [IGF310], RLPLCVEFSELCFDLR [IGF277], IPFLCLEFEELCFHLD [IGF271]

From patent US20160046678A1 (ZYNGENIA, published 2016)
